Consider 3 molecules from PMC3616908.

Sequences of proteins named here, by UniProt entry; tags and fusion partners are left off.
UniProt P00546: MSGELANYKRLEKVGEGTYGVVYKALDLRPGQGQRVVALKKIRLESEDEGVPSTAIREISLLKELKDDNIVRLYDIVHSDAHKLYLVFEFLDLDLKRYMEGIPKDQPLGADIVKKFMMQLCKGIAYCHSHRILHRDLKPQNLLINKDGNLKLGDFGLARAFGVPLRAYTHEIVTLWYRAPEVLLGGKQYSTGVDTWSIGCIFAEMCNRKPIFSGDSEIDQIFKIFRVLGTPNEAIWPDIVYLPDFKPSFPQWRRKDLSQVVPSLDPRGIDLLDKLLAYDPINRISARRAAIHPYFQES
UniProt P22216: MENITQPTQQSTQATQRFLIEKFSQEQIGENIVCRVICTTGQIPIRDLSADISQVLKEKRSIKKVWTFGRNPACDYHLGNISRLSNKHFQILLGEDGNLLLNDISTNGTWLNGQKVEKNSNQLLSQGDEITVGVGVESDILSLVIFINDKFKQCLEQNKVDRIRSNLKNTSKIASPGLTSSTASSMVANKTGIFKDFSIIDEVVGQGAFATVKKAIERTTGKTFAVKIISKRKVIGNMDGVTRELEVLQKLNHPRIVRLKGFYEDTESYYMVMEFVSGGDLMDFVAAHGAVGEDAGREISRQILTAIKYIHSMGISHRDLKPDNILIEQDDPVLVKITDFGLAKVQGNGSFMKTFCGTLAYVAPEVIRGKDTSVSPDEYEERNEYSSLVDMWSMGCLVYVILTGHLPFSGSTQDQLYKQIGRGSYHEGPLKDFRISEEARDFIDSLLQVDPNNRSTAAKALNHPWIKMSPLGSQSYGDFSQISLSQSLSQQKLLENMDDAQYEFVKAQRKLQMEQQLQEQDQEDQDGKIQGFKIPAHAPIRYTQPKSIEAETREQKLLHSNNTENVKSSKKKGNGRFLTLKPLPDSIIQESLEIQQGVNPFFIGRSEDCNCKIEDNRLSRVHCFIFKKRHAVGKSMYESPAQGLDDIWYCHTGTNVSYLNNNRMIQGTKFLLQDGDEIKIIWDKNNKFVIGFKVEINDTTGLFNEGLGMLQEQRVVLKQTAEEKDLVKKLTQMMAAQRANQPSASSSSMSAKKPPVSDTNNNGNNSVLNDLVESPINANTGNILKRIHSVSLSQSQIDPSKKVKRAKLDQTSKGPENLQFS

One assay has as its target T1, Clb2 (S. cerevisiae) (UniProt P24869).
T1 sequence: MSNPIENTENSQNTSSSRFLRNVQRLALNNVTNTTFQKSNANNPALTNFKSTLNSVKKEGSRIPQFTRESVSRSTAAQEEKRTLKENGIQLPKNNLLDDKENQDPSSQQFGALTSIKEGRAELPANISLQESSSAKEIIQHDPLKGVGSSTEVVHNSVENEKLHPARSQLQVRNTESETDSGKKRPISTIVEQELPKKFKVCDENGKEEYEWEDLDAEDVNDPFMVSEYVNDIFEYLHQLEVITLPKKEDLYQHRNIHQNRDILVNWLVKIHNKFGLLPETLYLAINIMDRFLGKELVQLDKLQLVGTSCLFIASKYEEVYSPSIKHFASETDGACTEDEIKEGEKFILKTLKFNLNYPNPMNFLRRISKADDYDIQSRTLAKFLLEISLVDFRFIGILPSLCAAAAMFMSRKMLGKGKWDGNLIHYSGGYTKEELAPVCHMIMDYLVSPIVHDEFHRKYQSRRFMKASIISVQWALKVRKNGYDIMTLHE
Briefly: co-purification of kinase complexes; four cyclin-Cdc28 complexes purified from yeast as in ref. 55; silver-stained gel (Figure S2A).

The next assay deals with T2, Clb3 (S. cerevisiae) (UniProt P24870).
T2 sequence: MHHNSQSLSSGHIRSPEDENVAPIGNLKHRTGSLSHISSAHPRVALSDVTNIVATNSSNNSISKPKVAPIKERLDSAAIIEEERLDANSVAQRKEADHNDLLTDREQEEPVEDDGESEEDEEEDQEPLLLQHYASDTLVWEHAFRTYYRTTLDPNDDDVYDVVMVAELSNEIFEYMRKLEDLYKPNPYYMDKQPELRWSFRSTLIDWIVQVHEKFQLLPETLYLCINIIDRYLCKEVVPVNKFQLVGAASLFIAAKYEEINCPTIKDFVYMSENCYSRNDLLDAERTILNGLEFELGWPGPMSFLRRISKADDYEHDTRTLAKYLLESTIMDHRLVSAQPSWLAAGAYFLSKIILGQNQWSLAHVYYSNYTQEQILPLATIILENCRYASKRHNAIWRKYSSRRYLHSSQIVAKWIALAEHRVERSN
The assay is described as above.

The target in a further assay is T3, Clb5 (S. cerevisiae) (UniProt P30283).
T3 sequence: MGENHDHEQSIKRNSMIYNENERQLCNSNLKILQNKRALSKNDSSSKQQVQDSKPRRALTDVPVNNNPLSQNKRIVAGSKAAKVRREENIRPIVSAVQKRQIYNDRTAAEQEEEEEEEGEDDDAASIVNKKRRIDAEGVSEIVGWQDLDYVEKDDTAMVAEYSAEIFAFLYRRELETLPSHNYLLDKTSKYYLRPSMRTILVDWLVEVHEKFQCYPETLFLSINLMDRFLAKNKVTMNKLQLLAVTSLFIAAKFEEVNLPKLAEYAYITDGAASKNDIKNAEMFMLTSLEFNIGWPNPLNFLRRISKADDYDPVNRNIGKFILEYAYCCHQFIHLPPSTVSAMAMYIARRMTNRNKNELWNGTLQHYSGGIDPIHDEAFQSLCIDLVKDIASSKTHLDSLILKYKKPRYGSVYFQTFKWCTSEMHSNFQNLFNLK
Described as above.

For the next assay, the target named is T4, Cln2 (S. cerevisiae) (UniProt P20438).
T4 sequence: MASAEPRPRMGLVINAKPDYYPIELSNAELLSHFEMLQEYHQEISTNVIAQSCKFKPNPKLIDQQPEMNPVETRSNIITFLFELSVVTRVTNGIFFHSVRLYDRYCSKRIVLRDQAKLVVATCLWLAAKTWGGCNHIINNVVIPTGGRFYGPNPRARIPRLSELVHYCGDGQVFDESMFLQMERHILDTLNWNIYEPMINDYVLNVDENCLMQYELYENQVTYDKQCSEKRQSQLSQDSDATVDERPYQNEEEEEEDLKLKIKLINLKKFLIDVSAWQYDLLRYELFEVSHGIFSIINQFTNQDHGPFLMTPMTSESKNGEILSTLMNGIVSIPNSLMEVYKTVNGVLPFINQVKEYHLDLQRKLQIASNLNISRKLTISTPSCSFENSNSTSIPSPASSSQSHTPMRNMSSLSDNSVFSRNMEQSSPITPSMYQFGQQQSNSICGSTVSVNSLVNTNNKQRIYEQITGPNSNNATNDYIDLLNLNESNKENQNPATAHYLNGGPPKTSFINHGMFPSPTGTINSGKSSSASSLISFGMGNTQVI
The assay is described as above.

The target of assay [1] is T5, Rad9-9MYC (S. cerevisiae) (UniProt P14737).
T5 sequence: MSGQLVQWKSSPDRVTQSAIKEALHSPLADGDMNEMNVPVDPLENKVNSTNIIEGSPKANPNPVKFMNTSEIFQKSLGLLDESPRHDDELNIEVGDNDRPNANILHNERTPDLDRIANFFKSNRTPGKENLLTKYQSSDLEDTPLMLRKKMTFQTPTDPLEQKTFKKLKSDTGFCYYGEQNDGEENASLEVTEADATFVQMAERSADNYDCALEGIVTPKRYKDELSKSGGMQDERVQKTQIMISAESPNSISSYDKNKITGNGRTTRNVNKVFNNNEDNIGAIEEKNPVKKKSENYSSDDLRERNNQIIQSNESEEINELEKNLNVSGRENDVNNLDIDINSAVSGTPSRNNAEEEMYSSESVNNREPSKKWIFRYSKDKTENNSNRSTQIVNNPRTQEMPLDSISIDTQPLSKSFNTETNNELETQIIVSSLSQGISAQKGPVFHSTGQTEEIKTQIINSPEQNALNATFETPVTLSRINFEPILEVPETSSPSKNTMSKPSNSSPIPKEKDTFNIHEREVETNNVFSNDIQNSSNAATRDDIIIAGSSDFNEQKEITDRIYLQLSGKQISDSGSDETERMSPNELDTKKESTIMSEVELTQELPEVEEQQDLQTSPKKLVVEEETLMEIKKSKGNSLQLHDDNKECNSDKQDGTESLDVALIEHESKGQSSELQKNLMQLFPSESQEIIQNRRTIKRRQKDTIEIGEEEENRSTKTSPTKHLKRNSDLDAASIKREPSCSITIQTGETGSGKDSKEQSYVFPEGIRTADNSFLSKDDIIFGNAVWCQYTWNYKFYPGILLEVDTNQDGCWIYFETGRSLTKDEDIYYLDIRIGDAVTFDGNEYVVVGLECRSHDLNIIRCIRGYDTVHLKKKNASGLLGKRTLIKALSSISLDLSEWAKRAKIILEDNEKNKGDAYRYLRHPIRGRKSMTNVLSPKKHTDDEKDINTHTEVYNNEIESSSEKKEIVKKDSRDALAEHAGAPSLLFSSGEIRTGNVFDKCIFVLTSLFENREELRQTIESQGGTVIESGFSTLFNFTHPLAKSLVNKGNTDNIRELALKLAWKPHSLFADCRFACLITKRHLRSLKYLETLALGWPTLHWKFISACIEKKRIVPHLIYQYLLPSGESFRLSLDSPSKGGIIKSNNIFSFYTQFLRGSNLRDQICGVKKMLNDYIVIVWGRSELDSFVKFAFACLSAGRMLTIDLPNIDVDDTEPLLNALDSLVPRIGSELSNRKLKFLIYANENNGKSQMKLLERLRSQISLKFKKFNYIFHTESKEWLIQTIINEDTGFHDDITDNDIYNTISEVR
The assay is described as follows: co-IP; anti-MYC IP of Rad9-9MYC from extract of nocodazole-arrested cells expressing Rad9-9MYC and Chk1-3FLAG, 20 ug/ml bleocin for 45 min; IgG mock control; western blot. In general terms: In western blotting, separated proteins are transferred to a membrane and probed.

For assay [2], the target named is T5, Rad9-9MYC (S. cerevisiae). The assay is described as follows: co-IP; Rad9-9MYC immunoprecipitated (anti-MYC) from bleocin-treated nocodazole-arrested cells; beads washed and incubated with ATP, ATP-gammaS or no nucleotide; beads and elution blotted.
Assay [3] addresses T6, Chk1-3FLAG (S. cerevisiae) (UniProt P38147).
T6 sequence: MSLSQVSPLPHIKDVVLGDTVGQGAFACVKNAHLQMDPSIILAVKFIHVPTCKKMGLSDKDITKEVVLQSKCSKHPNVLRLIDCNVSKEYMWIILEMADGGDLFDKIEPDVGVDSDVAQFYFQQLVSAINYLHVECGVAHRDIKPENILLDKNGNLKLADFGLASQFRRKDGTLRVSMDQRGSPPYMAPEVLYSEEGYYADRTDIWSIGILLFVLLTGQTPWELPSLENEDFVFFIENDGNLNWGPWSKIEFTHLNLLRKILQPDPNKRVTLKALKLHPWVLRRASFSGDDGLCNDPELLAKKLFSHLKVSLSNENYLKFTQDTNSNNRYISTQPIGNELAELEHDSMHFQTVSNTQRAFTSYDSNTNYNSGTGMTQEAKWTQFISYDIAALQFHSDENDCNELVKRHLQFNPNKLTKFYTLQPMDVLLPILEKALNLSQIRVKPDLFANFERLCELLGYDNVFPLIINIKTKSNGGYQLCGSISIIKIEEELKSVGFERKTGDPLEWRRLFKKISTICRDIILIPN
Briefly: co-IP; anti-FLAG (Chk1-3FLAG) or anti-MYC (Dpb11-13MYC) IP from 1 ml clarified crude extract (10 mg/ml) of nocodazole-arrested wild type or rad9^CDK1-9A cells, mock or 20 ug/ml bleocin for 45 min; IgG mock IP as control; western blot.

No constants are given. Whether binding was seen depends on the method and setting. For some of these results: Binding seen in cells or lysates may run through a third protein. Some binding calls cover weakened binding; strength is not graded here. For some of these results: Sequences can lack the tags named with a protein.

As for “Cdc28 (from UniProt P00546 1-298) (enzyme)”, the binding entry with Clb2 (S. cerevisiae), with Clb3 (S. cerevisiae), in the assay with Clb5 (S. cerevisiae) and in the assay with Cln2 (S. cerevisiae) was “binds” each time.

With “Rad53 (endogenous) (from UniProt P22216 1-821)”, the binding entry in assay [1] and in assay [2] was “binds” each time.

B1: Dpb11-13MYC (protein, UniProt P47027 1-764)
chain: MKPFQGITFCPTAINNEILAKKISKKIIKLGGIFSKDLTRQVNVLVVGSTTNTNKFKFAVKHRFDIIFIDIQAIDDIYQLWLSGENILPDSNTATMTGSTYEMLKILYRRFSFKYLHNFNIFIGRITDTNITSIDSLVRSIKKLGCSSYNYQNFVIKDTSSHNDDDDQGQNGQISIFVTDTLLGARVNAAIEQNIPIVHFKWILDCQKRSALLPYDPYYLLPNIKDLPYDSIGSNSCDCWDKINTTFPTNIDAQSSLQRQQSSSTLTPSLPKTSSLLNKFKPKGEKIWDKAMSLQQHSKTNFSVLGQSPLSINNKQEDLSDNSTLIFKNCAFIIHHIFPGNHRSILTKIVVQNGGKIETSYLSGIYDHSYYIIPSNKALDSFNDLPEIIDDNDGIVTEFFIERCLYYQKLLHPIDLWSKPFLSTIEFQVSSSSKLLHHEFSSSPFLNVTITGFSGVELLHLTKVLNLLKPMGINYVEYLNKSTDILLINLAALPSIPKTHPLWSNEFSDLFTQFCINNNNDDPGDNNRKDFQNNSILRNSMKRKIEYIKKFHSIPVVTPAFIFKLLSAASGENNEIFLNNIKWCIICPRGHKDDFKCKIKKPYYTSISSEKKYQNNDPKIDKTILLKRNNSSLSEHSMKDTKNELLQKIRETDSGRKKRSVSSSIMDVSSERQMPDTKRIKLESLPKNFVPKQIKRTTSWGTIMSENVPTEQPTAISNPEEIPRTEEVSHTQVTYGSIQDKKRTASLEKPMRRQTRNQTKELDS
As to B1, in assay [3], the binding result was “no binding”.
